The text below walks through data of PubChem BioAssay AID1508600 (Functional Genomics Laboratory (NCATS/FGL), 2020).

The campaign covered roughly 53,000 sequences. About 3,700 (7%) were called active.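 The calls were made as follows: active = gene knockdowns whose robust z-score for IL-1 alpha signal is at least 2 or at most -2, so actives lie on both sides; inactive = the rest.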 The list shows a part of the results.

The test in a line: Components of the Cytosolic LPS Sensing Pathway: Gene Identification via Genome-wide siRNA Screen.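 Also: robust z of the log signal after scaling to non-targeting control siRNA wells of the plate.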 To be noted: RAW264.7 macrophages, IL-1a HTRF, actives lie on both sides, screened at 100 nM (by protocol), cells primed 5 h with Pam3CSK4 first. The method in brief:
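Cells (RAW264.7, 1×10^4 per well) were transfected with siRNA at 100 nM and cultured 48h at 37 degrees C. Pam3CSK4 was added for 5 hours; LipidA transfection followed for 24 hour. IL-1a was then measured by HTRF.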
In general terms: TR-FRET usually uses a lanthanide donor and a delayed reading to cut background.
Consider GAGAUCAGCUUCAAUGCUUTT against Olfr564, for which the z-score is inactive: 0.899.
Turning to GGAGUUUGUAGCUGACAUCTT against Dcaf15, the z-score was inactive: -1.02.
ACCCUUUUGUUUACACUCUTT against Olfr763: the z-score is inactive: -0.76.
As for GGUGGAAGGCAACAUAUAUTT against Vta1, the figure is inactive: -1.55; as for GAUGGACAGAAAUCAGGAGTT against Arap1, inactive: 0.208.
In the case of GGACCCAUCGGAUAACUAUTT against Stk40 it was inactive: 0.499.
For the sequence GGACGACGACUUUGAGAGGTT against Map2k2, the z-score is inactive: 0.348.
In the case of GCAACUCUAACUUAUAAGATT against Dennd1a it was inactive: -0.569.
As for GGGUGAUGAGCCUAAGCUATT against Scamp5, the figure is inactive: -0.616; as for GGACUUGGGUCAUUGUGAGTT against Grpel1, inactive: -0.93; as for GGAGUUAAACAAACAGAGUTT against Psma6, inactive: -0.855.
As for GGCUCCAAGGAGAAUUGUUTT against Bbox1, the figure is inactive: -0.93; as for GGAACAAGUUUGUGCUUUCTT against Cpd, inactive: 0.728; as for GGAACAAAAGUGUGAAGAATT against Ccnd2, inactive: -0.0981.
In the case of CCAUCUAACCCUAUAUUAGTT against G6pdx, the z-score was inactive: -1.21.
In the case of CGGUUCUCUACAUUACUGCTT against Pllp it was inactive: 0.223; in that of CGUGGCUAGGUUAUUUAAATT against Htr1d, inactive: 1.01; in that of GGAGUAUGAAUGCUAUGUCTT against Fsd2, active: -3.24.
Take “GGGCAAAGACAGUAUUCAATT against B530045E10Rik”: the z-score was inactive: 0.4.
For GGAUACAAUGCAACUGUCCTT against Kif4, the z-score was inactive: -1.08.
For the sequence GGAAUUGGAUUCAAGUAUGTT against Ubiad1, the z-score is inactive: -0.253.
In the case of GCUCCCUUUACAACUCUCATT against Ifna6, the z-score is inactive: 1.96.
With GCAUGAACGACCCGCUGAATT against Wdsub1, the z-score was inactive: 0.331.
Consider GGAUUCCAAAUGCUUACAATT against Lysmd3, for which the z-score was inactive: 0.757.
As for GCCGCUGCACUACAAUUUGTT against Trhde, the figure is inactive: 0.717; as for CCAGAGCCCAAGCCAAGUUTT against Nanos3, inactive: 0.639; as for GCAUCUGCUAUGGGAAGACTT against Ttc39b, inactive: 1.03.
In the case of GGAGAAGGGACCUCAGAACTT against Plrg1, the z-score was inactive: 0.084.
In the case of GGUCAUUGUGUUAUUACCATT against Prdx4 it was inactive: -0.187; in that of “GGAUAUGUGUCGCCAUAUATT against 4930590J08Rik”, inactive: 0.835; in that of GCCAAUUGAUUAUAAUCGCTT against Riok2, inactive: 0.0984.
With GGUUUUUCUCAACAAACUCTT against Svs2, the z-score is inactive: -0.511.
Take CCCACAGUUGACUGUCUUUTT against Clcnkb: the z-score is inactive: 0.46.
As for GGCUUUACAGAAAUAUCCUTT against Exoc3l2, the figure is inactive: -1.89.
CCCUAAUUCUUAGGCCUUUTT against Bloc1s3: the z-score is inactive: -0.242.
On to GGGCCUAUCAAGAUUUUCCTT against Stk11ip, for which the z-score was inactive: -0.0264.
Turning to GGUCAAUGACAUCGUCAGUTT against Fam171b, the z-score is inactive: -1.04.
In the case of GCUGGUAUUGGCGAAUGGUTT against Lysmd4 it was inactive: 0.358.
Consider GGACCUGUUUGAUCCCAUCTT against Ckm, for which the z-score was inactive: -1.54.
In the case of GCAGAUCAUUCCCGUGUUGTT against P2ry14 it was inactive: 0.565.
As to GGUUUUGGUCACUCUUUGGTT against Olfr1240, the z-score is inactive: -0.00786.
In the case of GCUCAACUGCCUGAGAUGCTT against Pink1 it was inactive: 0.573; in that of GGAGUCAUGGAUGAAUGUATT against Abhd18, inactive: -1.27; in that of GGACCUUUAUAAUGACAGGTT against Uqcrb, inactive: 0.603.
Consider CCAAACAAUGUUGUUUAGGTT against Rilpl1, for which the z-score is inactive: -0.965.
Take GGUGACUCACUCGUGUUAATT against Scn9a: the z-score is inactive: -0.0161.
Consider GGUUCUGGAAAGUUCUCUGTT against Sorcs2, for which the z-score was inactive: -0.0101.
As for GGCUUAUGUUUGCUUUGUUTT against Piwil1, the figure is inactive: 0.0916; as for GGUUUUACGGAAACGGGAATT against Nid2, inactive: 1.45; as for GGGCUCUAAAAAGGAUUUUTT against Snrnp200, inactive: -0.0221.
As for GGAAGAAAUGCAGGUGUGGTT against Gab3, the figure is active: -2.15; as for GGGCAUCCUCUUCAAAGAUTT against Drc3, inactive: -1.12; as for GGAGUUAUGGAUGACGUGGTT against Stard4, inactive: -1.07.
For GGAAGAAUAAAGUGCUUUGTT against Chga, the z-score is active: 2.27.
On to GGGUGUACAGGAUUUCCACTT against Nfyc, for which the z-score was inactive: 0.0255.
As for GCAGAAGUUUUGAGCCACUTT against Ralgps2, the z-score was inactive: 0.193.
On to GUGAUGUGGCCAUGUCAAUTT against Olfr641, for which the z-score was active: -2.61.
As for GGGCGAAAAGGUGAAACAATT against Flot2, the z-score is inactive: -0.864.
In the case of GGCUCUUGUCACAUGAUCATT against Jagn1 it was inactive: -1.77; in that of “GGUACACAGCCAAAGACUGTT against A030005L19Rik”, inactive: 0.256.
As for GGAGAUCCACAUCAACGAATT against Slc9a1, the figure is inactive: -0.589.
In the case of GCCUGACGAUAAGAAAGAATT against Map4k4 it was inactive: -0.907; in that of GGCUUAAAGAAGAAAAAGATT against Spdl1, inactive: 0.757; in that of GGUAUCCUGUCAUCAUGAGTT against Olfr272, inactive: 0.182.
Take GCAAAUACCUGUUGAAUAATT against Timd4: the z-score was inactive: 1.12.
For GGUAGAGGCAGUCAUGACATT against Abcg5, the z-score is inactive: -1.12.
Regarding GCCAUCUUUUUACCUGGUCTT against Selenon, the z-score is inactive: -0.845.
For the sequence UUGCUAUAAGGGCAUGGAATT against LOC434448, the z-score is inactive: 1.42.
As for GCCUACAACCGCUUCUUGGTT against Fam83h, the figure is inactive: -0.912; as for GGAAGAGAAGAAGGAACUUTT against Ada, inactive: -1.51; as for GCAGGAAAGAGUUCAACAGTT against Gimap4, inactive: -1.02.
As for CGAGAUCACAGACCAAUUGTT against Shisa2, the figure is inactive: 0.513.
Regarding GGACAAAACGUGCAAUAUGTT against Pkdcc, the z-score was inactive: -0.188.
As for CGGAUUAUGAGGGACAAGCTT against Agk, the z-score is inactive: 1.85.
For GCUCUCUAUAGGAUAAUGGTT against Vwa5b2, the z-score was inactive: -1.86.
As for GCACGCCUUACUGGAAUCCTT against Bub1, the figure is inactive: -0.58; as for GGACCUCCCACAGUGUUAUTT against Enpp2, inactive: -0.574; as for GGUCAAGGUCAAAUAAAAGTT against Lgals2, inactive: -1.98.
In the case of GGUGUUUGCCCUUCCGUGATT against Gper1 it was inactive: 0.521.
With CGUGUAUCGCAGUUUGUCCTT against E2f3, the z-score was inactive: 0.851.
Regarding GGAGCUAAAAACUUGUAUATT against Rpl23, the z-score was inactive: -0.0611.
With UGUGCCCUAUAGAACCUGUTT against Krtap13-1, the z-score was inactive: 0.394.
As for GGAUGAAAUCGAUUGUCUCTT against Ctsa, the figure is inactive: 0.707.
As for GGGAAAUUUACAGAAAGUGTT against Igtp, the figure is inactive: 0.956; as for CGACUCCCACCUUUAGGAGTT against Nkx2-5, active: 2.5.
CGAAACACCAGAUGUAUUCTT against Gck: the z-score is inactive: -0.551.
Consider GGUAUGCGAUCAAACUUUUTT against Ttr, for which the z-score was inactive: -0.309.
As for GGAUCUUCUACACAGUAAATT against Ppp2r3d, the figure is inactive: -0.0431; as for GGAACUGGAUGAAUCAAAUTT against Ehbp1, inactive: -0.262.
As to GGACAUGAUCCAUAUUGCATT against Eif3l, the z-score is inactive: -1.06.
In the case of GGGUUGAUGUGGUAGAUGATT against Zfp185 it was inactive: -1.27; in that of GCUACGCAUUGAGGAGCUATT against Pkn1, inactive: 0.168; in that of GCCUGUUCGGGAACCUUAUTT against Olfr299, inactive: 1.61.
With CGACCUGAGUGAAAAGAAGTT against Stk32c, the z-score is inactive: 0.754.
Regarding GGCUCUGGGAAUGACGACATT against Zbp1, the z-score is inactive: 0.357.
CCUCGUUCCUUUGAAAUCATT against Gfi1: the z-score was inactive: 0.255.
As to GCUUACGUUUCAUUCUCCCTT against Bora, the z-score is inactive: -1.59.
As for GGAACUUUGAACUGAAGGGTT against Upb1, the z-score was inactive: 1.53.
As for CGAUAUCCUGAAACUGCCUTT against Tbx3, the figure is inactive: 0.00551.
On to GGUGAGGACCUUCUUCCUUTT against B3galt5, for which the z-score is inactive: -1.5.
As for GGGCUUCAGUGAGAACGAUTT against Ift46, the figure is inactive: -1.3; as for GCCGAGACAUAUGCCAAGATT against Dmpk, inactive: -1.07.
As for CCUCUCUGUACAGUCAACCTT against Il20rb, the figure is inactive: 0.151; as for GCCACUCAGAGUGUGGAGUTT against Ddx20, inactive: -0.95.
In the case of GGCAAUCCAUUUCUCAGUCTT against Tmprss5 it was inactive: -0.962; in that of GGCUGUCAAGAAGCACAUCTT against Inhba, inactive: 1.08; in that of GCGAAAAGUCCACCACAUATT against Cyp51, inactive: -0.958.
